# Laboratory results reported in paper PMC7819943, “Rice protein-binding microarrays: a tool to detect cis-acting elements near promoter regions in rice”.
# Sequences of proteins named here, by UniProt entry; tags and fusion partners are left off.
# UniProt Q0JBA9, entry or part of it: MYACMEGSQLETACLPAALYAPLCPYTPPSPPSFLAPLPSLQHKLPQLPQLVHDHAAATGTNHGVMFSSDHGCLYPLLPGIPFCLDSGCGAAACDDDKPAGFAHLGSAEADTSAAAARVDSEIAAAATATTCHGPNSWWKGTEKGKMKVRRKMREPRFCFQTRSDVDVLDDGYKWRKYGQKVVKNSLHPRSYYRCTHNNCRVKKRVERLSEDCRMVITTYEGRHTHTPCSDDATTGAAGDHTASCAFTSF
# This is one part of the list.
# Molecular target: OsWRKY34 (Oryza sativa, UniProt Q0JBA9 1-250)
# Assay: protein-binding microarray (RPBM); PBS, 2% BSA, 51.3 ng/ul salmon testes DNA, 50 uM zinc acetate, 200 nM TF, 25 C, 1 h; high values mean tight binding
# Conditions: protein: recombinant; tags: N-terminal polyhistidine and DsRed monomer fusion (pET32a); label: CyDye5-dUTP incorporated in the synthesized complementary strand; 3' TTTTT single-stranded linker to array surface; dsDNA, one strand shown
# Procedure, shortened: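 A custom Agilent array was converted to double-stranded form by primer extension with Cy5-dUTP and blocked with 2% BSA. Protein at 200 nM in PBS with 2% BSA, salmon testes DNA and 50 µM zinc acetate was applied for 1 h at 25 °C, followed by washing. The proteins were polyhistidine–DsRed N-terminal fusions of transcription factors, expressed in E. coli BL21-CodonPlus and Ni–NTA-purified. The binding signal is per-feature fluorescence intensity (arbitrary units) from an Axon 4000B scanner.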
row,Sequence,binding signal
1,CGGCTCGCCGACTTCGCTCGCCTTCCTGCCGTCGCCTCCGCGGAGTCACCTAGTGCAG,8280 fluorescence intensity (a.u.)
2,CCCTCTCTCTCTCTCTCTCTCTCTCTCTCTCTCTCTCTCTCGGAGTCACCTAGTGCAG,10800 fluorescence intensity (a.u.)
3,CTGACATGTGAGTCCCATTACCCTCGTGCCTATATGTAAGCGGAGTCACCTAGTGCAG,8060 fluorescence intensity (a.u.)
4,CCACTTTCCCATGAGTGCTTTGTTCATGACTTTCTGGTCTCGGAGTCACCTAGTGCAG,9390 fluorescence intensity (a.u.)
5,GCCTCCGTCCGTCCGTCCGTCTCTCTCTCTCTCTCTTCTTCGGAGTCACCTAGTGCAG,8860 fluorescence intensity (a.u.)
6,TCCCGAGCCCATTGCAACCCCAATGCTTATAGGCCTTATGCGGAGTCACCTAGTGCAG,9110 fluorescence intensity (a.u.)
7,ATCGATTGTGTAGTTCTTTGATCGCATCTGGGAGTTATCACGGAGTCACCTAGTGCAG,8320 fluorescence intensity (a.u.)
8,TCATTGTTAAGCCGTTGTTATGTACTCCCTCCATTTTTTACGGAGTCACCTAGTGCAG,12500 fluorescence intensity (a.u.)
9,GATATATCCGGGTGGTTTTTTCGCACTTATGTTTGTTTATCGGAGTCACCTAGTGCAG,9050 fluorescence intensity (a.u.)
10,AAGCTTGGACGACGCTTTCAATGTACTTGTCCGGCAAACACGGAGTCACCTAGTGCAG,9250 fluorescence intensity (a.u.)
11,CGCCGCGTAAGCTTTCCTTCCCGTTCACTCCCAGGCTCTCCGGAGTCACCTAGTGCAG,9060 fluorescence intensity (a.u.)
12,CGTGTTGTTATGGGGTAGTATATCATCAGATGTTGGAACCCGGAGTCACCTAGTGCAG,8770 fluorescence intensity (a.u.)
13,GGGTAGGAGGAGGTAATTGAGAGGTAATTCCTCCTTTAATCGGAGTCACCTAGTGCAG,9220 fluorescence intensity (a.u.)
14,GTACGTTCGCGCGCATGCTACATGCATGCATGCACATCGACGGAGTCACCTAGTGCAG,9380 fluorescence intensity (a.u.)
15,CACAAACTTCCAACTTTTCCGTCACATCGTTCCAATTTCACGGAGTCACCTAGTGCAG,12400 fluorescence intensity (a.u.)
16,GTGCTTACGTGCTAGTTAGTGCTAATAATTACTCACCATGCGGAGTCACCTAGTGCAG,8060 fluorescence intensity (a.u.)
17,ACCTTGGCCTGCATGTCGCGGAGGGCCGCGGCCTCTTCCTCGGAGTCACCTAGTGCAG,8070 fluorescence intensity (a.u.)
18,ACCACTCCGGTCCGACTCCGACCCGAACCCCATCTCCTCTCGGAGTCACCTAGTGCAG,13400 fluorescence intensity (a.u.)
19,CTAAGTTCATACTTTTGGACAGGGTTGACTTTACTTCTTTCGGAGTCACCTAGTGCAG,9900 fluorescence intensity (a.u.)
20,TTGCCGTACAATCTTGATTTGGAGATCTTCCTGGCCAACACGGAGTCACCTAGTGCAG,9120 fluorescence intensity (a.u.)
21,CTCTCGTCTTCTCGTCTCGTCTTTGGCTGTGATTTGACGCCGGAGTCACCTAGTGCAG,11700 fluorescence intensity (a.u.)
22,CACAGCCTCAACACCCTGATACCATAATTCAACTCTGGCACGGAGTCACCTAGTGCAG,10600 fluorescence intensity (a.u.)
23,TGTCCCATCCGATACGACATGTCAGTCTCACTCCTCTCTTCGGAGTCACCTAGTGCAG,8570 fluorescence intensity (a.u.)
24,AGCCTCTACGCAACCATTACCTACTATTTGAATCGTTTTCCGGAGTCACCTAGTGCAG,9170 fluorescence intensity (a.u.)
25,TGCTTTTTTTTTTCCTTTCTAGCATTTGTTGTTTTGCGCACGGAGTCACCTAGTGCAG,16300 fluorescence intensity (a.u.)
26,GTGGAGTCGTTGTGTTCATGTCATTTGAGAATCTCATACCCGGAGTCACCTAGTGCAG,10500 fluorescence intensity (a.u.)
27,AGATCTTCCAGGCCAGTGTGTGTTTTTCACATCAACGCATCGGAGTCACCTAGTGCAG,9080 fluorescence intensity (a.u.)

# Shown tab-delimited: entries from further up
row	Sequence	binding signal
12	CGTGTTGTTATGGGGTAGTATATCATCAGATGTTGGAACCCGGAGTCACCTAGTGCAG	8770 fluorescence intensity (a.u.)
13	GGGTAGGAGGAGGTAATTGAGAGGTAATTCCTCCTTTAATCGGAGTCACCTAGTGCAG	9220 fluorescence intensity (a.u.)
14	GTACGTTCGCGCGCATGCTACATGCATGCATGCACATCGACGGAGTCACCTAGTGCAG	9380 fluorescence intensity (a.u.)
15	CACAAACTTCCAACTTTTCCGTCACATCGTTCCAATTTCACGGAGTCACCTAGTGCAG	12400 fluorescence intensity (a.u.)
16	GTGCTTACGTGCTAGTTAGTGCTAATAATTACTCACCATGCGGAGTCACCTAGTGCAG	8060 fluorescence intensity (a.u.)
17	ACCTTGGCCTGCATGTCGCGGAGGGCCGCGGCCTCTTCCTCGGAGTCACCTAGTGCAG	8070 fluorescence intensity (a.u.)
18	ACCACTCCGGTCCGACTCCGACCCGAACCCCATCTCCTCTCGGAGTCACCTAGTGCAG	13400 fluorescence intensity (a.u.)
19	CTAAGTTCATACTTTTGGACAGGGTTGACTTTACTTCTTTCGGAGTCACCTAGTGCAG	9900 fluorescence intensity (a.u.)
20	TTGCCGTACAATCTTGATTTGGAGATCTTCCTGGCCAACACGGAGTCACCTAGTGCAG	9120 fluorescence intensity (a.u.)
21	CTCTCGTCTTCTCGTCTCGTCTTTGGCTGTGATTTGACGCCGGAGTCACCTAGTGCAG	11700 fluorescence intensity (a.u.)
22	CACAGCCTCAACACCCTGATACCATAATTCAACTCTGGCACGGAGTCACCTAGTGCAG	10600 fluorescence intensity (a.u.)
23	TGTCCCATCCGATACGACATGTCAGTCTCACTCCTCTCTTCGGAGTCACCTAGTGCAG	8570 fluorescence intensity (a.u.)
24	AGCCTCTACGCAACCATTACCTACTATTTGAATCGTTTTCCGGAGTCACCTAGTGCAG	9170 fluorescence intensity (a.u.)
25	TGCTTTTTTTTTTCCTTTCTAGCATTTGTTGTTTTGCGCACGGAGTCACCTAGTGCAG	16300 fluorescence intensity (a.u.)
26	GTGGAGTCGTTGTGTTCATGTCATTTGAGAATCTCATACCCGGAGTCACCTAGTGCAG	10500 fluorescence intensity (a.u.)

# Later entries

row,Sequence,binding signal
1,GTCCCTCATTTTGTCGCCCAGATTTTTGTCAGAACAAACACGGAGTCACCTAGTGCAG,12200 fluorescence intensity (a.u.)
2,GAGCTTCACACACATATATTGGTAGATTATATTAGGTTTTCGGAGTCACCTAGTGCAG,8800 fluorescence intensity (a.u.)
3,TCTCCCTCTCTCTCTCCACCGCGCCGGCCCGGTTCGACTCCGGAGTCACCTAGTGCAG,8060 fluorescence intensity (a.u.)
4,GTCTCGTATCATCTCATCTCATCACATCAGCACACATCACCGGAGTCACCTAGTGCAG,10600 fluorescence intensity (a.u.)
5,CTAAATGTTTAACGCCGTTGACTTTTTAAAACATATTTGACGGAGTCACCTAGTGCAG,13400 fluorescence intensity (a.u.)
6,ACTATTACTTCTATTTTCTAGTATTTTTTTTTGTTTCTCTCGGAGTCACCTAGTGCAG,13500 fluorescence intensity (a.u.)
7,AGCATTAACTACATTGTCATGTTGGACTTTTATCTTATGTCGGAGTCACCTAGTGCAG,10800 fluorescence intensity (a.u.)
8,AGTAAGGTTGTGTTCTTTCTCCTTCTTTCCCAACTCACTTCGGAGTCACCTAGTGCAG,10900 fluorescence intensity (a.u.)
9,AGGGATTTTCAGTTTTTGCTTGTAACGTTTAACCACTCATCGGAGTCACCTAGTGCAG,10600 fluorescence intensity (a.u.)
10,AATCAAAGGGTGTGTATATATTTTTCTTTTTCTCCGAATACGGAGTCACCTAGTGCAG,11500 fluorescence intensity (a.u.)
11,TGGGGTGGATGGGTTCGTGGACCAACTGTTTCATTAGATCCGGAGTCACCTAGTGCAG,12900 fluorescence intensity (a.u.)
12,AGGCTTAAAAAATTTGTCTCGTGAATTAGCTTTTATTTATCGGAGTCACCTAGTGCAG,9870 fluorescence intensity (a.u.)
13,GGCCGTCCAGCGTAATTATGCACTCCTGTCCACTCGTCCACGGAGTCACCTAGTGCAG,10500 fluorescence intensity (a.u.)
14,ACCCACACCCACCGACCCACCCCACCAACGCATCGGCGCACGGAGTCACCTAGTGCAG,14600 fluorescence intensity (a.u.)
15,TTCAAAACTGCTCCGTTTCCTATTATGTCTCTTTTTCAAACGGAGTCACCTAGTGCAG,9360 fluorescence intensity (a.u.)
16,TCCGCCCTCTGACCGCGGCGCCAAAGCTCCTCCGCGCGCGCGGAGTCACCTAGTGCAG,8030 fluorescence intensity (a.u.)
17,GATCACATGGGCCACACTTTTTTTTAATTATTTTTTGTGTCGGAGTCACCTAGTGCAG,8040 fluorescence intensity (a.u.)
18,CGCACCACCACCACCATTTCCACGCCCCTCTCTCCATTCCCGGAGTCACCTAGTGCAG,8680 fluorescence intensity (a.u.)
19,TGGTTTGGTTTGCTTCTTCTCTGCTTCAACGGTTGGTCGACGGAGTCACCTAGTGCAG,16900 fluorescence intensity (a.u.)
20,ATCATCCCCTATCTCGCCGCCTGTCCTCTTGCGATTCATGCGGAGTCACCTAGTGCAG,9110 fluorescence intensity (a.u.)
21,ATTCTCTTTCATGTGATTTCTGCCCAATTTGATGTGAACCCGGAGTCACCTAGTGCAG,11700 fluorescence intensity (a.u.)
22,CTGGGCTGGGTTCCATTGGGCCGAATGCATCGAGGACCCACGGAGTCACCTAGTGCAG,8110 fluorescence intensity (a.u.)
23,TATCATTCCGCCAGATGTATAGCTTCGGTTTTCTTACTCACGGAGTCACCTAGTGCAG,8900 fluorescence intensity (a.u.)
24,AGATTTTTGTGTCTTTTGCTTGCCCCTATCTATGTTATATCGGAGTCACCTAGTGCAG,9070 fluorescence intensity (a.u.)
25,GGTGATGGTCCTCATTCTACCGTGCTGCCTCGGCAGCAACCGGAGTCACCTAGTGCAG,9140 fluorescence intensity (a.u.)
26,TGTTTGACGCCGTTGACTTTTTAGCACATGTTTGACCGTTCGGAGTCACCTAGTGCAG,43600 fluorescence intensity (a.u.)
27,TTGTGTCACTTACATGTGGGCTCCACATATTTATTTTTTTCGGAGTCACCTAGTGCAG,8090 fluorescence intensity (a.u.)
